{"source": "the supplement of paper PMC4635364", "key": {"[1]": {"test_system": "ReNCell VM", "assay": "neuronal differentiation score (DCX+ cell fraction vs untreated, manual image score) (score (-3 to 3)); higher = more neuronal differentiation", "conditions": "2 uM, 2 weeks"}, "[2]": {"test_system": "ReNCell VM", "assay": "dopaminergic neuron differentiation score (TH+ cell fraction vs untreated, manual image score) (score (0 to 3)); higher = more TH+ dopaminergic neuron differentiation", "conditions": "2 uM, 4 weeks, BDNF 10 ng/ml + GDNF 10 ng/ml"}}, "note": "Where a name gives a salt, the structure may show the parent alone. Some of the results follow. Single values are uncertain here, since repeats match poorly.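 Cells: ReNCell VM human fetal ventral-midbrain neural progenitors, differentiated mitogen-free. Blinded raters compared doublecortin-stained (early neurons) or tyrosine hydroxylase-stained (dopaminergic neurons) images with untreated wells, where 0 means no change. After repeats and both raters were averaged, compounds scoring 2 or above became hits for retesting.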"}
{"smiles": "O=C1N=C(O)NC1(c1ccccc1)c1ccccc1", "note": "[Phenytoin sodium]", "values": [{"measurement": "neuronal differentiation score", "setting": "[1]; library: LOPAC", "result": "inactive: 0"}, {"measurement": "dopaminergic neuron differentiation score", "setting": "[2]; library: LOPAC", "result": "inactive: 0"}]}
{"smiles": "C[C@]12CC[C@@H]3c4ccc(O)cc4CC[C@H]3[C@@H]1C[C@@H](O)[C@@H]2O", "values": [{"measurement": "neuronal differentiation score", "setting": "[1]; library: Spectrum", "result": "inactive: 0"}, {"measurement": "dopaminergic neuron differentiation score", "setting": "[2]; library: Spectrum", "result": "inactive: 0"}]}
{"smiles": "CNCCCC12CCC(c3ccccc31)c1ccccc12", "values": [{"measurement": "neuronal differentiation score", "setting": "[1]; library: Spectrum", "result": "inactive: 0"}, {"measurement": "dopaminergic neuron differentiation score", "setting": "[2]; library: Spectrum", "result": "inactive: 0"}]}
{"smiles": "O=C1C[C@@H](c2ccc(O)cc2)Oc2cc(O)cc(O)c21", "note": "[Naringenine]", "values": [{"measurement": "neuronal differentiation score", "setting": "[1]; library: Phytochemical", "result": "inactive: 0"}, {"measurement": "dopaminergic neuron differentiation score", "setting": "[2]; library: Phytochemical", "result": "inactive: 0"}]}
{"smiles": "NCCCCN", "values": [{"measurement": "neuronal differentiation score", "setting": "[1]; library: Spectrum", "result": "inactive: 0"}, {"measurement": "dopaminergic neuron differentiation score", "setting": "[2]; library: Spectrum", "result": "inactive: 0"}]}
{"smiles": "O=C(OCCN1CCOCC1)C1(c2ccccc2)CCCCC1", "note": "[PRE-084 hydrochloride]", "values": [{"measurement": "neuronal differentiation score", "setting": "[1]; library: Tocriscreen", "result": "inactive: 0"}, {"measurement": "dopaminergic neuron differentiation score", "setting": "[2]; library: Tocriscreen", "result": "inactive: 0"}]}
{"smiles": "CC(=O)N[C@@H](Cc1ccccc1)C(=O)O", "values": [{"measurement": "neuronal differentiation score", "setting": "[1]; library: Spectrum", "result": "inactive: 0"}, {"measurement": "dopaminergic neuron differentiation score", "setting": "[2]; library: Spectrum", "result": "inactive: 0"}]}
{"smiles": "O=C(CCCN1CCC(O)(c2ccc(Br)cc2)CC1)c1ccc(F)cc1", "note": "[Bromperidol]", "values": [{"measurement": "neuronal differentiation score", "setting": "[1]; library: Prestwick", "result": "inactive: 0"}, {"measurement": "dopaminergic neuron differentiation score", "setting": "[2]; library: Prestwick", "result": "inactive: 0"}]}
{"smiles": "O=Nc1ccc(O)c2ncccc12", "values": [{"measurement": "neuronal differentiation score", "setting": "[1]; library: Tocriscreen", "result": "inactive: 0"}, {"measurement": "dopaminergic neuron differentiation score", "setting": "[2]; library: Tocriscreen", "result": "inactive: 0"}]}
{"smiles": "C[C@@H](O)[C@H]1C(=O)N2C(C(=O)O)=C(SCCNC=N)C[C@H]12", "note": "[Imipenem]", "values": [{"measurement": "neuronal differentiation score", "setting": "[1]; library: Prestwick", "result": "inactive: 0"}, {"measurement": "dopaminergic neuron differentiation score", "setting": "[2]; library: Prestwick", "result": "inactive: 0"}]}
{"smiles": "O=C1C2CC3CC1CC(O)(C3)C2", "values": [{"measurement": "neuronal differentiation score", "setting": "[1]; library: Spectrum", "result": "inactive: 0"}, {"measurement": "dopaminergic neuron differentiation score", "setting": "[2]; library: Spectrum", "result": "inactive: 0"}]}
{"smiles": "CC(C)NC[C@H](O)COc1cccc2ccccc12", "note": "[(S)-(-)-Propranolol hydrochloride]", "values": [{"measurement": "neuronal differentiation score", "setting": "[1]; library: Tocriscreen", "result": "inactive: 0"}, {"measurement": "dopaminergic neuron differentiation score", "setting": "[2]; library: Tocriscreen", "result": "inactive: 0"}]}
{"smiles": "CC(N/C(=N\\C#N)Nc1ccncc1)C(C)(C)C", "note": "(stereo unspecified)", "values": [{"measurement": "neuronal differentiation score", "setting": "[1]; library: Spectrum", "result": "inactive: 0"}, {"measurement": "dopaminergic neuron differentiation score", "setting": "[2]; library: Spectrum", "result": "inactive: 0"}]}
{"smiles": "CC1(C)[C@@H](O)CC[C@]2(C)[C@H]3C(=O)C=C4[C@@H]5C[C@@](C)(C(=O)O)CC[C@]5(C)CC[C@@]4(C)[C@]3(C)CC[C@@H]12", "note": "[Glycyrrhetinic Acid]", "values": [{"measurement": "neuronal differentiation score", "setting": "[1]; library: Phytochemical", "result": "inactive: 0"}, {"measurement": "dopaminergic neuron differentiation score", "setting": "[2]; library: Phytochemical", "result": "inactive: 0"}]}
{"smiles": "COC1(C)CCC2OC2(C)CCC2C1CC2(C)C", "note": "(stereo unspecified)", "values": [{"measurement": "neuronal differentiation score", "setting": "[1]; library: Spectrum", "result": "inactive: 0"}, {"measurement": "dopaminergic neuron differentiation score", "setting": "[2]; library: Spectrum", "result": "inactive: 1"}]}
{"smiles": "NCCCCCC(=O)O", "note": "[Aminocaproic acid]", "values": [{"measurement": "neuronal differentiation score", "setting": "[1]; library: Prestwick", "result": "inactive: 0"}, {"measurement": "dopaminergic neuron differentiation score", "setting": "[2]; library: Prestwick", "result": "inactive: 0"}]}
{"smiles": "Cc1cccc(C)c1NC(=O)C1CCCCN1C", "note": "(stereo unspecified)", "values": [{"measurement": "neuronal differentiation score", "setting": "[1]; library: Spectrum", "result": "inactive: 0"}, {"measurement": "dopaminergic neuron differentiation score", "setting": "[2]; library: Spectrum", "result": "inactive: 0"}]}
{"smiles": "CCC(C)(C)C(=O)O[C@H]1C[C@@H](C)C=C2C=C[C@H](C)[C@H](CC[C@@H]3C[C@@H](O)CC(=O)O3)[C@H]21", "values": [{"measurement": "neuronal differentiation score", "setting": "[1]; library: Spectrum", "result": "inactive: 1"}, {"measurement": "dopaminergic neuron differentiation score", "setting": "[2]; library: Spectrum", "result": "active: 2"}]}
{"smiles": "C=C1CC[C@H]2[C@@](C)(CCC[C@@]2(C)C(=O)O)[C@@H]1CCc1ccoc1", "note": "[daniellic acid]", "values": [{"measurement": "neuronal differentiation score", "setting": "[1]; library: Natural", "result": "inactive: 0"}, {"measurement": "dopaminergic neuron differentiation score", "setting": "[2]; library: Natural", "result": "inactive: 0"}]}
{"smiles": "N[C@@H](C(=O)O)c1ccc(O)c(C(=O)O)c1", "note": "[(R)-3-Carboxy-4-hydroxyphenylglycine]", "values": [{"measurement": "neuronal differentiation score", "setting": "[1]; library: Tocriscreen", "result": "inactive: 0"}, {"measurement": "dopaminergic neuron differentiation score", "setting": "[2]; library: Tocriscreen", "result": "inactive: 0"}]}
{"smiles": "CS(=O)(=O)OCCCCOS(C)(=O)=O", "values": [{"measurement": "neuronal differentiation score", "setting": "[1]; library: Spectrum", "result": "inactive: 0"}, {"measurement": "dopaminergic neuron differentiation score", "setting": "[2]; library: Spectrum", "result": "inactive: 0"}]}
{"smiles": "CN1C(=O)CC(C)(c2ccccc2)C1=O", "note": "(stereo unspecified)", "values": [{"measurement": "neuronal differentiation score", "setting": "[1]; library: Spectrum", "result": "inactive: 0"}, {"measurement": "dopaminergic neuron differentiation score", "setting": "[2]; library: Spectrum", "result": "inactive: 0"}]}
{"smiles": "COc1ccc2c(c1)N(C(C)=O)C1C3COC(C)C4CN5CCC21C5CC43", "note": "(stereo unspecified) [Strychnospermine]", "values": [{"measurement": "neuronal differentiation score", "setting": "[1]; library: Phytochemical", "result": "inactive: 0"}, {"measurement": "dopaminergic neuron differentiation score", "setting": "[2]; library: Phytochemical", "result": "inactive: 0"}]}
{"smiles": "C[C@@H]1CN(CCCn2c3ccccc3c3ccccc32)C[C@H](C)N1", "note": "[Rimcazole dihydrochloride]", "values": [{"measurement": "neuronal differentiation score", "setting": "[1]; library: Tocriscreen", "result": "inactive: 0"}, {"measurement": "dopaminergic neuron differentiation score", "setting": "[2]; library: Tocriscreen", "result": "inactive: 0"}]}
{"smiles": "CC1(C)O[C@H]2CC(=O)OC[C@]23[C@H]2CC[C@@]4(C)[C@H](c5ccoc5)OC(=O)[C@H]5O[C@]54[C@]2(C)C(=O)C[C@@H]13", "values": [{"measurement": "neuronal differentiation score", "setting": "[1]; library: Spectrum", "result": "inactive: 0"}, {"measurement": "dopaminergic neuron differentiation score", "setting": "[2]; library: Spectrum", "result": "inactive: 0"}]}
{"smiles": "CCN(CC)CCOC(=O)c1cc(Cl)c(N)cc1OC", "note": "[SDZ 205-557 hydrochloride]", "values": [{"measurement": "neuronal differentiation score", "setting": "[1]; library: Tocriscreen", "result": "inactive: 0"}, {"measurement": "dopaminergic neuron differentiation score", "setting": "[2]; library: Tocriscreen", "result": "inactive: 0"}]}
{"smiles": "N[C@@H](Cc1cc(I)c(Oc2ccc(O)c(I)c2)c(I)c1)C(=O)O", "values": [{"measurement": "neuronal differentiation score", "setting": "[1]; library: Spectrum", "result": "inactive: -1"}, {"measurement": "dopaminergic neuron differentiation score", "setting": "[2]; library: Spectrum", "result": "inactive: 0"}]}
{"smiles": "O=c1cc(-c2ccccc2)oc2cc(O)c(O)c(O)c12", "note": "[Baicalein]", "values": [{"measurement": "neuronal differentiation score", "setting": "[1]; library: Tocriscreen", "result": "inactive: 0"}, {"measurement": "dopaminergic neuron differentiation score", "setting": "[2]; library: Tocriscreen", "result": "inactive: 0"}]}
